Structures are written as SMILES.

Results on one molecule are retold here after patent US20100286200A1, “COMBINATION OF METFORMIN AND AN MTP INHIBITOR” (JANSSEN PHARMACEUTICA NV, priority 2008, published 2010).

For this series, the system named is subjects with type 2 diabetes mellitus undergoing metformin treatment. In words: Proof-of-concept 12-week double-blind, randomized, placebo-controlled study of the MTP inhibitor in subjects on metformin treatment. In kind it is in vivo, human. The source says: Proof-of-concept study of combinations of metformin and the MTP inhibitor (+)-phenyl-(4-{4-[(4′-trifluoromethyl-biphenyl-2-carbonyl)-amino]-phenyl}-piperidin-1-yl)-acetic acid methyl ester
Safety and efficacy of the MTP inhibitor (+)-phenyl-(4-{4-[(4′-trifluoromethyl-biphenyl-2-carbonyl)-amino]-phenyl}-piperidin-1-yl)-acetic acid methyl ester in the treatment of subjects with type 2 diabetes mellitus undergoing metformin treatment has been investigated. Three dosing regimens of the MTP inhibitor, 5-10-15 mg bid, were compared to placebo in a double-blind, randomized, parallel-group study design of 12 weeks wherein all subjects were following metformin treatment. All subjects remained on a calorically appropriate, low fat (≦30%) diet, being in accordance with the local practice guidelines for the treatment of type 2 diabetes.
Subjects randomized into the study had to have type 2 diabetes for at least 3 months and remained on a stable metformin monotherapy for at least 2 months. There were 88, 84, 91 and 89 patients randomized to placebo, 5 mg, 10 mg and 15 mg BID. Mean age was 55 years and there were slightly more males than females randomized into the study (males:females—54%:46%).
The mean baseline glycosylated hemoglobin (HbA1c) was 7.8±0.8% (mean±SD) and the mean plasma glucose was 9.1±1.80 mmol/L (mean±SD). The majority (68%) of subjects had HbA1c levels≦8%.
Mean weight at baseline was 94.9 kg and varied between 92.8 kg and 96.7 kg in different treatment groups, while the mean baseline BMI was 32.8 kg/m^2.

Regarding `COC(=O)C(c1ccccc1)N1CCC(c2ccc(NC(=O)c3ccccc3-c3ccc(C(F)(F)F)cc3)cc2)CC1` (single isomer, unassigned; (+)) [(+)-phenyl-(4-{4-[(4′-trifluoromethyl-biphenyl-2-carbonyl)-amino]-phenyl}-piperidin-1-yl)-acetic acid methyl ester], the “proportion of subjects who withdrew from the study” value (shortened to “proportion of subjects who withdrew”) (5 mg bid) turned out to be 7%, the “proportion of subjects who withdrew” value (10 mg bid) amounted to 18% and the “proportion of subjects who withdrew” value (15 mg bid) came to 13%.
